According to PubChem BioAssay AID1794844 (National Center for Advancing Translational Sciences (NCATS), 2023):
Among all 2,800 compounds or so, fewer than 10 were called active. About 7% were inconclusive and are not listed. Calls follow the shape of the dose curve; as a rule, active = well fitted inhibition curve with a large enough effect; inconclusive = small, poorly fitted or top-dose-only effect; inactive = no such curve, though single readings can be large or run the other way. Some of the results follow.

The chains behind the UniProt entries cited, without tags or fusion partners. Where a name states a change or a piece, a line headed by the entry shows the natural chain unless it says otherwise.
UniProt C7C422: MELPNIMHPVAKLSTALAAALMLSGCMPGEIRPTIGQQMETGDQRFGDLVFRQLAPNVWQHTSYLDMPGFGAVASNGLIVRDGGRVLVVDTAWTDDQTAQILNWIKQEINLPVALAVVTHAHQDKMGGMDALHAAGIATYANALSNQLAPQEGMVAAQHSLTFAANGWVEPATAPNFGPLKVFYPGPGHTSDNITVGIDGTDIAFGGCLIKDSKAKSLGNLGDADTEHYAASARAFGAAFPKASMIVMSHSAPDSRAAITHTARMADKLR

target: Metallo-beta-lactamase type 2 (Klebsiella pneumoniae) (UniProt C7C422); test: qHTS to identify inhibitors of the New Delhi Metallo-beta-lactamase (NDM): Nitrocefin screen against the machine-based learning selections.; also: % of control where 0% means no effect; conditions: NDM-1 enzyme, nitrocefin hydrolysis, absorbance 485 nm; at 57.5 µM (top of the series) unless noted
Text: Assay Submitter (PI): James Inglese Ph.D., Patricia Dranchak Ph.D., Mahesh Aitha Ph.D. Assay Development and Screening Technology Laboratory (ADST) National Center for Advancing Translational Sciences (NCATS), Rockville, MD National Institute of Health (NIH), Bethesda, Maryland The metallo-beta-lactamases (MBL) are a main antibiotic resistance mechanism evolved by bacteria. There is an urgent clinical need for MBL inhibitors to mitigate this growing threat. To support a machine-based learning study, qHTS has been used to experimentally test inhibitors identified by prediction tools.
PROTOCOL TABLE (as described by Inglese et al., 2007) SEQUENCE No. (e.g., 1, 2, 3, etc.); […] (e.g., enzyme, Incubation, Reagent, etc.); VALUE; DESCRIPTION Primary Screen 1; NDM-1; 4 uL of 3 nM enzyme [2 nM final] in 50 mM HEPES (pH 7.0), 1 uM […], 0.01% Tween20; Use BioRaptr to dispense into two sets of Aurora black, clear bottom high base 1536-well plates 2; Compounds; 23 nL; Use Pin Tool (Wako) to transfer DMSO control and library compounds in DMSO 3; Incubate; >30 min 4a; Reagent; 2 uL of 50 uM nitrocefin [16.7 uM final] to one set of assay plates 4b; Reagent; 2 uL of 150 uM meropenem [50 uM final] to second set of assay plates 5a; Incubate; 15 min 5b; Incubate; 30 min 6a; Detector; Absorbance at 485 nm (bandwidth = 5 nm, 25 flashes/well) on Tecan Infinity 6b; Detector; Absorbance at 300 nm (bandwidth = 5 nm, 25 flashes/well) on Tecan Infinity NOTES (numbers refer to sequence above) 1; Column 1 of each plate received assay buffer without enzyme and columns 2-48 received enzyme for a final assay concentration of 2 nM. 2; Control plate contained DMSO in columns 1, 2, 3, and 4. 3; Compound interaction with enzyme. 4; Nitrocefin and meropenem substrates were prepared in the same assay buffer as step 1 for a final assay concentration of 16.7 uM and 50 uM, respectively, and added to all wells across respective sets of assay plates. 5; Default reader settings were applied for absorbance read at 485 nm (nitrocefin) or 300 nm (meropenem), bandwidth = 5 nm, 25 flashes/well. References: Inglese J, Shamu CE, Guy RK. 2007. Reporting data from high-throughput screening of small-molecule libraries. Nat Chem Biol. doi:10.1038/nchembio0807-438 Yasgar A, Shinn P, Jadhav A, Auld D, Michael S, Zheng W, Austin CP, Inglese J, Simeonov A. 2008. Compound Management for Quantitative High-Throughput Screening. J Lab Autom 13:79 - 89. doi:10.1016/j.jala.2007.12.004

| SMILES | activity, negative = inhibition |
| --- | --- |
| CCC(CC)c1cc([C@H]2CN3CC[C@H]2C[C@@H]3CNC(=O)c2ccc(C)cc2)nc(-c2ccncc2)n1 | inactive: 2.38% [at 38.4 µM] |
| CC(C)NC(=O)NC[C@H]1C[C@@H]2CCN1C[C@@H]2c1cc(C2CCCC2)nn1C | inactive: 3.9% |
| NC(=O)c1ccc(-c2cccc3c2CCNC3)s1 | inactive: 0.0382% [at 38.4 µM] |
| CC(=O)Nc1ccc(S(=O)(=O)NC[C@H]2C[C@@H]3CCN2C[C@@H]3c2cc(-c3ccccc3Br)nc(C)n2)cc1 | inactive: 10.2% [at 38.4 µM] |
| CC(=O)Nc1ccc(-c2ccc(=O)n3c2[C@@H]2C[C@@H](CN(C(=O)C4CCCCC4)C2)C3)cc1 | inactive: -2.71% |
| COc1ccc(C(=O)N2C[C@@H]3C[C@H](C2)c2c(NC(=O)c4ccco4)ccc(=O)n2C3)cc1 | inactive: -22.2% |
| Cn1cc(C(=O)N2CC[C@@](C)(O)[C@@H](O)C2)c2ccccc21 | inactive: 11.3% [at 38.4 µM] |
| C=C[C@H]1CN2CC[C@H]1C[C@@H]2CNC(=O)Nc1ccc(Oc2ccccc2)cc1 | inactive: -3.86% |
| O=C1N(Cc2cccnc2)C[C@H]2CN(C3CCC3)CCN12 | inactive: 0.975% [at 76.7 µM] |
| N#Cc1ccc(C(=O)N2C[C@@H]3C[C@H](C2)c2c(-c4ccccc4F)ccc(=O)n2C3)cc1 | inactive: -5.57% |
| COc1ccc(CN2C[C@@H]3C[C@H]2C(=O)Nc2ccccc2O3)cn1 | inactive: -24.4% |
| COc1ccc(C(=O)N2[C@H]3CC[C@@H]2c2cnc(C)nc2C3)c(OC)c1 | inactive: 4.19% [at 38.4 µM] |
| CNCc1cn(C[C@H]2CC3CCN2C[C@@H]3C(=O)NCc2ccccc2)nn1 (stereo partly specified) | inactive: 0.0925% |
| Cc1nc(-c2ccco2)cc([C@H]2CN3CC[C@H]2C[C@@H]3CNC(=O)Nc2ccccc2)n1 | inactive: 2.38% |
| CSCC(=O)N1C[C@@H]2C[C@H](C1)c1ccc(-c3ccccc3CN(C)C)c(=O)n1C2 | inactive: 25.9% |
| C#C[C@H]1CN2CC[C@H]1C[C@@H]2CNS(=O)(=O)c1ccc(Cl)cc1 | inactive: -1.5% |
| CC[C@H]1CN2CC[C@H]1C[C@@H]2CNCc1ccc(OC)cc1 | inactive: -7.87% [at 76.7 µM] |
| CN(C)C(=O)[C@H]1CN2CCC1C[C@@H]2Cn1cc(CSc2ccccc2)nn1 (stereo partly specified) | inactive: 20.8% |
| CC1CCN(C[C@H]2CN3CC[C@H]2C[C@@H]3CNC(=O)Nc2ccccc2)CC1 | inactive: 3.2% |
| CC[C@H]1CN2CC[C@H]1C[C@@H]2CNCc1ccc2c(c1)OCO2 | inactive: -3.61% |
| CC[C@H]1CN2CC[C@H]1C[C@@H]2CNC(=O)c1ccc(N(C)C)cc1 | inactive: 0.17% |
| CC(=O)Nc1ccc(S(=O)(=O)NC[C@H]2C[C@@H]3CCN2C[C@@H]3c2cc(-c3ccco3)nc(C)n2)cc1 | inactive: -2.87% [at 38.4 µM] |
| COc1ccccc1CNC(=O)[C@H]1CN2CC[C@H]1C[C@@H]2Cn1cc(-c2ccccn2)nn1 | inactive: -5.15% |
| CN(C)C(=O)[C@H]1CN2CCC1C[C@@H]2Cn1cc(-c2cccc(N)c2)nn1 (stereo partly specified) | inactive: -0.595% |

| SMILES | activity, negative = inhibition |
| --- | --- |
| O=C(C1CCCCC1)N1C[C@@H]2C[C@H](C1)c1c(-c3ccc(Cl)cc3)ccc(=O)n1C2 | inactive: -8.84% |
| CC(=O)Nc1ccc(S(=O)(=O)NC[C@H]2C[C@@H]3CCN2C[C@@H]3c2cc(-c3ccccc3)nn2C)cc1 | inactive: 17.5% [at 38.4 µM] |
| COCC1CN(C)CC12CCN(Cc1cccc(OC)n1)CC2 (stereo unspecified) | inactive: 0.593% [at 38.4 µM] |
| O=C(O)CSCC(=O)N1C[C@@H]2C[C@H](C1)c1c(-c3ccccc3F)ccc(=O)n1C2 | inactive: 0.709% |
| COc1ccc(-c2ccc(=O)n3c2[C@@H]2C[C@@H](CN(C(=O)C(C)(C)C)C2)C3)cc1 | inactive: -1.51% |
| CC(C)(C)c1ccc(-c2cn(C[C@H]3CC4CCN3C[C@@H]4C(=O)NCc3ccccc3)nn2)cc1 (stereo partly specified) | inactive: -10.8% [at 38.4 µM] |
| COc1ccc(-c2cc([C@H]3CN4CC[C@H]3C[C@@H]4CNC(=O)C(C)(C)C)nc(C)n2)cc1OC | inactive: 3.47% [at 38.4 µM] |
| COc1ccc(CN(Cc2ccc(OC)cc2)C[C@H]2C[C@@H]3CCN2C[C@@H]3c2cc(C3CCCC3)nn2C)cc1 | inactive: -15.2% [at 38.4 µM] |
| CN(C)c1ccc(C(=O)NC[C@H]2C[C@@H]3CCN2C[C@@H]3CN(C)c2ccccc2)cc1 | inactive: 0.893% |
| C#C[C@H]1CN2CC[C@H]1C[C@@H]2CNCc1ccc(C(F)(F)F)cc1 | inactive: 8.9% |
| CSCC(=O)N1C[C@@H]2C[C@H](C1)c1c(-c3ccc(NC(C)=O)cc3)ccc(=O)n1C2 | inactive: 3.36% |
| O=C(Nc1nccs1)[C@H]1CN2CCC1C[C@@H]2Cn1cc(CC2CCCCC2)nn1 (stereo partly specified) | inactive: -9.51% |
| COc1ccccc1-c1cc([C@H]2CN3CC[C@H]2C[C@@H]3CNC(=O)N2CCOCC2)n(C)n1 | inactive: -5.49% |
| CC(C)NC(=O)NC[C@H]1C[C@@H]2CCN1C[C@@H]2CN1CCN(c2ccccn2)CC1 | inactive: 1.8% |
| Cc1ccc(S(=O)(=O)NC[C@H]2C[C@@H]3CCN2C[C@@H]3CN2CCCCC2)cc1 | inactive: 1.68% |
| COc1cc2c(cc1OCc1ccncc1)NC(=O)C21CCN(Cc2ccccc2O)CC1 | inactive: 8.75% [at 38.4 µM] |
| CSCC(=O)Nc1ccc2n(c1=O)C[C@H]1C[C@@H]2CN(C(=O)COc2ccccc2)C1 | inactive: -7.98% |
| Cc1cc(NCCc2c[nH]c(=O)[nH]c2=O)n2nccc2n1 | inactive: -15.6% [at 38.4 µM] |
| CNc1ncc(C(=O)N2C[C@H]3COc4ccccc4C[C@@]3(C(=O)O)C2)cn1 | inactive: -5.63% [at 38.4 µM] |
| CC[C@H]1CN2CC[C@H]1C[C@@H]2CNS(=O)(=O)c1ccc2ccccc2c1 | inactive: -8.66% |
| O=C1CO[C@H]2CN(Cc3ccncc3)C[C@H]2N1Cc1ccccc1 | inactive: -0.866% |
| CC[C@H]1CN2CC[C@H]1C[C@@H]2COC(=O)Nc1ccc(C(C)(C)C)cc1 | inactive: 290% |
| CCC(CC)c1cc([C@H]2CN3CC[C@H]2C[C@@H]3CNC(=O)C2CC2)nc(-c2ccncc2)n1 | inactive: -1.13% |
| COc1ccc(-c2cc([C@H]3CN4CC[C@H]3C[C@@H]4CNC(=O)C3CCC3)n(C)n2)cc1OC | inactive: -3.58% |

Exported with tabs: entries from further up
SMILES	activity, negative = inhibition
CC(C)NC(=O)NC[C@H]1C[C@@H]2CCN1C[C@@H]2CN1CCN(c2ccccn2)CC1	inactive: 1.8%
Cc1ccc(S(=O)(=O)NC[C@H]2C[C@@H]3CCN2C[C@@H]3CN2CCCCC2)cc1	inactive: 1.68%
COc1cc2c(cc1OCc1ccncc1)NC(=O)C21CCN(Cc2ccccc2O)CC1	inactive: 8.75% [at 38.4 µM]
CSCC(=O)Nc1ccc2n(c1=O)C[C@H]1C[C@@H]2CN(C(=O)COc2ccccc2)C1	inactive: -7.98%
Cc1cc(NCCc2c[nH]c(=O)[nH]c2=O)n2nccc2n1	inactive: -15.6% [at 38.4 µM]

Further entries:

| SMILES | activity, negative = inhibition |
| --- | --- |
| CCOc1ccc(CC(=O)N2CCC3(CC2)c2nccn2-c2ccccc2CN3C)cc1 | inactive: -1.24% [at 38.4 µM] |
| CN(C)c1ccc(C(=O)NC[C@H]2C[C@@H]3CCN2C[C@@H]3CN2CCCCC2)cc1 | inactive: -22.5% |
| CCC(CC)c1cc([C@H]2CN3CC[C@H]2C[C@@H]3CNC(=O)c2ccc(N(C)C)cc2)nc(-c2ccncc2)n1 | inactive: 6.71% [at 38.4 µM] |
| O=C(NC1CC1)[C@H]1CN2CCC1C[C@@H]2Cn1cc(CSc2ccccc2)nn1 (stereo partly specified) | inactive: 0.0308% |
| CN(C)Cc1cn(C[C@H]2C[C@@H]3CCN2C[C@@H]3C(=O)Nc2ccccc2)nn1 | inactive: -0.783% |
| CSc1ccc(-c2ccc(=O)n3c2[C@@H]2C[C@@H](CN(S(C)(=O)=O)C2)C3)cc1 | inactive: -21.1% |
| CC(=O)c1ccc(NC(=O)NC[C@H]2C[C@@H]3CCN2C[C@@H]3c2cc(-c3ccco3)nc(C)n2)cc1 | inactive: 0.355% [at 38.4 µM] |
| CC(C)NC(=O)[C@H]1CN2CCC1C[C@@H]2Cn1cc(CN(C)Cc2ccccc2)nn1 (stereo partly specified) | inactive: -0.154% |
| CCCCc1cn(C[C@H]2CC3CCN2C[C@@H]3C(=O)NCc2ccccc2)nn1 (stereo partly specified) | inactive: -0.354% |
| CCN(CC)C[C@H]1CN2CC[C@H]1C[C@@H]2CNC(=O)Nc1ccccc1 | inactive: 3.43% |
| O=C(c1cncnc1)N1C[C@@H]2C[C@H](C1)c1c(-c3ccc4ccccc4c3)ccc(=O)n1C2 | inactive: -0.638% |
| COCCC(=O)N1[C@H]2CC[C@@H]1c1cnc(-c3ccccc3)nc1C2 | inactive: 1.8% [at 38.4 µM] |
| Cc1ccccc1-c1ccc2n(c1=O)C[C@H]1C[C@@H]2CN(C(=O)NC2CCCCC2)C1 | inactive: 1.63% |
| COCC1(CNC2CCN(C)CC2)C[C@@H](O)[C@@H](O)C1 (stereo partly specified) | inactive: -9.03% [at 76.7 µM] |
| Cc1ccc2c(n1)N(C)[C@H](CO)CCN(CC(C)C)C2 | inactive: -9.9% [at 76.7 µM] |
| Cc1ccc(C(=O)NC[C@H]2C[C@@H]3CCN2C[C@@H]3c2cc(-c3ccccc3)nn2C)cc1 | inactive: 2.19% |
| CCCS(=O)(=O)NC[C@H]1C[C@@H]2CCN1C[C@@H]2c1cc(-c2ccccc2Br)nc(C)n1 | inactive: -2.5% [at 38.4 µM] |
| COCCNC(=O)[C@H]1CN2CCC1C[C@@H]2Cn1cc(-c2cccc(N)c2)nn1 (stereo partly specified) | inactive: -0.524% |
| COCC(=O)NC[C@H]1C[C@@H]2CCN1C[C@@H]2CN1CCC(C)CC1 | inactive: -11.9% |
| CC[C@H]1CN2CC[C@H]1C[C@@H]2CNS(=O)(=O)c1cccc(C#N)c1 | inactive: -1.45% |
| CN(C)Cc1ccccc1-c1ccc2n(c1=O)C[C@H]1C[C@@H]2CN(C(=O)c2cnccn2)C1 | inactive: 0.328% |
| COCCNC(=O)[C@H]1CN2CCC1C[C@@H]2Cn1cc(-c2ccc(-c3ccccc3)cc2)nn1 (stereo partly specified) | inactive: 0.288% [at 38.4 µM] |
| CC(=O)c1ccc(NC(=O)NC[C@H]2C[C@@H]3CCN2C[C@@H]3CN2CCC(Cc3ccccc3)CC2)cc1 | inactive: 2.7% [at 38.4 µM] |
